These are yes or no findings as the source states them, for the method shown. Some binding calls cover weakened binding; strength is not graded here.
Molecular target: CCR3 (UniProt P51677)
Experiment: radioligand binding; equilibrium competition on L1.2/CCR3 transfectants, tracer 0.1 nM 125I-CCL11, 0.1 x10^6 cells/well, competitor 10^-6 to 10^-12 M, room temperature 4 h, filtration; only the binder purified

Chains of the proteins cited; added tags and fusions are not shown. Residues count along the entry.
UniProt P51677: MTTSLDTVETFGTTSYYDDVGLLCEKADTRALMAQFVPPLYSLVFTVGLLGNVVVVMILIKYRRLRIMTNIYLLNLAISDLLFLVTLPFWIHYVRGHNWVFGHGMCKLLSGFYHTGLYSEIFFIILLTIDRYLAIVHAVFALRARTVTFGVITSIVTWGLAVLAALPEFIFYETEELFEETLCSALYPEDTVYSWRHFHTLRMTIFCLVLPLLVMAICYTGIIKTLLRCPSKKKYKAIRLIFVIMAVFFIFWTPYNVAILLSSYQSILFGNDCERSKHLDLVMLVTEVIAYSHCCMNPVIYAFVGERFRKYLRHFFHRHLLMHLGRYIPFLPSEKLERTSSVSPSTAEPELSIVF
UniProt P51671, residues 24-97: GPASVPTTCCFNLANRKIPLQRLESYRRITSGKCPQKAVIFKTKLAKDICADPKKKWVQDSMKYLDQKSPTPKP

binding: binds
Substance: ^125I-CCL11 (from UniProt P51671 24-97) (ligand)

Reference: publication PMC3741163
